# In the supplement of paper PMC12819154, “High-throughput peptide-centric local stability assay extends protein–ligand identification to membrane proteins, tissues and bacteria” (Nature Structural & Molecular Biology, 2025):
# By UniProt entry, the sequences of proteins in these tests, tags left out. Where a name states a change or a piece, a line headed by the entry shows the natural chain unless it says otherwise.
# UniProt Q9R0H0: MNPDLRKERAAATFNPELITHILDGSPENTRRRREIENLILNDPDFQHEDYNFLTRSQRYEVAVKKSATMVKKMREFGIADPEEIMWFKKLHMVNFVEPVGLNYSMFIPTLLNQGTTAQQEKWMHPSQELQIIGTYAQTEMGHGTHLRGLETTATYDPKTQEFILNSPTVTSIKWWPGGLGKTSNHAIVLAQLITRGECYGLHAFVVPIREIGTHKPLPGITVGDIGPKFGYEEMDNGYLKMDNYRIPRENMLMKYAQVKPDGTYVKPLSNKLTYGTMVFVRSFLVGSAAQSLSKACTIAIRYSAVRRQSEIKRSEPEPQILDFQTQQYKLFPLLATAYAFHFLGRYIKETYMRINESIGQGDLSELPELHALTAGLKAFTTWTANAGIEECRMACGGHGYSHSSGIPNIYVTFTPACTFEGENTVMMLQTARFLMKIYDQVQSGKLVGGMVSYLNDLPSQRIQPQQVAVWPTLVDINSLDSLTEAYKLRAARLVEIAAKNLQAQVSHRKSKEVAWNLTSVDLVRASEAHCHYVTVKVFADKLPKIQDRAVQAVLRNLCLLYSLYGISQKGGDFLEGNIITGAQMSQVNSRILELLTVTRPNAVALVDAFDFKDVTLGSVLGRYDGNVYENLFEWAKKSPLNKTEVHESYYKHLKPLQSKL
# UniProt Q9R1Q7: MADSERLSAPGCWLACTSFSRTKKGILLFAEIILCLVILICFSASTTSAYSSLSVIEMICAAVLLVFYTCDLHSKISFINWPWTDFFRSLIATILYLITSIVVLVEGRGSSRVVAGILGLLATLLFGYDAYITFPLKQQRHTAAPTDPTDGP
# UniProt Q9WTP7: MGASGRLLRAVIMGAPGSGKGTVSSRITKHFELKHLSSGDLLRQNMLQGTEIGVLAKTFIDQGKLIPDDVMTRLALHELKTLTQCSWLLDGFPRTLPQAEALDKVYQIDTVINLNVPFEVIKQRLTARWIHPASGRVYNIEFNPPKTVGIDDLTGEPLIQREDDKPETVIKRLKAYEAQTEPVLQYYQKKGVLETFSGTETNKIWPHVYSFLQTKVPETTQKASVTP
# UniProt Q9R078: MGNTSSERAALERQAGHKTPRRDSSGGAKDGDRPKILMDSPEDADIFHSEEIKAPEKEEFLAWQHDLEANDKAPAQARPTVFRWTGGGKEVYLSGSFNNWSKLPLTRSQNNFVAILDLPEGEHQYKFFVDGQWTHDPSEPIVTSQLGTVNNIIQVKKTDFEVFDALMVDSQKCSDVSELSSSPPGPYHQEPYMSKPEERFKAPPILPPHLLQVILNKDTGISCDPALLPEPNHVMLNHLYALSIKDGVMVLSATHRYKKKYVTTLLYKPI
# UniProt Q9WV02: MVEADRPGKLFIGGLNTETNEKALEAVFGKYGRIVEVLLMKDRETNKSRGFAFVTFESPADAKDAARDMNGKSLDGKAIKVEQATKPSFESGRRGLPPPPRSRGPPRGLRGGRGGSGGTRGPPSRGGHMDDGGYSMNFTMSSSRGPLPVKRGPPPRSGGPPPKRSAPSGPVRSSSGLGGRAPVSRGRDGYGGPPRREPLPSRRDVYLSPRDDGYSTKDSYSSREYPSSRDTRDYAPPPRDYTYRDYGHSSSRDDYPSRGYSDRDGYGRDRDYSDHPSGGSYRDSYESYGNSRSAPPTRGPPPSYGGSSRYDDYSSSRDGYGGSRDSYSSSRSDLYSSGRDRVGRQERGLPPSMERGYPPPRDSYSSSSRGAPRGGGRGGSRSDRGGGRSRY
# UniProt Q9QYR9: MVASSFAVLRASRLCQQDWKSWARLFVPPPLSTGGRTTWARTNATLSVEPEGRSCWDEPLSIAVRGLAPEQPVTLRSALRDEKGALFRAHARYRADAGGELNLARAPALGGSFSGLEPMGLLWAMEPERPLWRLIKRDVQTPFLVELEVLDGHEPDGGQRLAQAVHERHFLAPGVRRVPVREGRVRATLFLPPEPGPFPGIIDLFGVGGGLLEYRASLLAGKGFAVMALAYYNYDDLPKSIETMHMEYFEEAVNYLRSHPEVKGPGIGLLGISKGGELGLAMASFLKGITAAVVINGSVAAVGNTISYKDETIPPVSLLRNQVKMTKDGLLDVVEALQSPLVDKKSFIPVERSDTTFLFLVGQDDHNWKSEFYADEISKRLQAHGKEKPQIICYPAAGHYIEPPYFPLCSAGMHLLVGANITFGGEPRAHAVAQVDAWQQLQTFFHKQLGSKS
# UniProt Q9WU03: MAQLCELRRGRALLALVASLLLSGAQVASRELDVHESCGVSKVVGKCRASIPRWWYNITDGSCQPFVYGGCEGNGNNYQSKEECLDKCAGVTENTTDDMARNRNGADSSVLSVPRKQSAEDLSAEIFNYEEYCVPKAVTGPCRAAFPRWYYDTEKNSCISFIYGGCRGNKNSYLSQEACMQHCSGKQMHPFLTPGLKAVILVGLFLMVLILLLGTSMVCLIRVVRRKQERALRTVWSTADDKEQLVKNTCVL
# UniProt Q9QY81: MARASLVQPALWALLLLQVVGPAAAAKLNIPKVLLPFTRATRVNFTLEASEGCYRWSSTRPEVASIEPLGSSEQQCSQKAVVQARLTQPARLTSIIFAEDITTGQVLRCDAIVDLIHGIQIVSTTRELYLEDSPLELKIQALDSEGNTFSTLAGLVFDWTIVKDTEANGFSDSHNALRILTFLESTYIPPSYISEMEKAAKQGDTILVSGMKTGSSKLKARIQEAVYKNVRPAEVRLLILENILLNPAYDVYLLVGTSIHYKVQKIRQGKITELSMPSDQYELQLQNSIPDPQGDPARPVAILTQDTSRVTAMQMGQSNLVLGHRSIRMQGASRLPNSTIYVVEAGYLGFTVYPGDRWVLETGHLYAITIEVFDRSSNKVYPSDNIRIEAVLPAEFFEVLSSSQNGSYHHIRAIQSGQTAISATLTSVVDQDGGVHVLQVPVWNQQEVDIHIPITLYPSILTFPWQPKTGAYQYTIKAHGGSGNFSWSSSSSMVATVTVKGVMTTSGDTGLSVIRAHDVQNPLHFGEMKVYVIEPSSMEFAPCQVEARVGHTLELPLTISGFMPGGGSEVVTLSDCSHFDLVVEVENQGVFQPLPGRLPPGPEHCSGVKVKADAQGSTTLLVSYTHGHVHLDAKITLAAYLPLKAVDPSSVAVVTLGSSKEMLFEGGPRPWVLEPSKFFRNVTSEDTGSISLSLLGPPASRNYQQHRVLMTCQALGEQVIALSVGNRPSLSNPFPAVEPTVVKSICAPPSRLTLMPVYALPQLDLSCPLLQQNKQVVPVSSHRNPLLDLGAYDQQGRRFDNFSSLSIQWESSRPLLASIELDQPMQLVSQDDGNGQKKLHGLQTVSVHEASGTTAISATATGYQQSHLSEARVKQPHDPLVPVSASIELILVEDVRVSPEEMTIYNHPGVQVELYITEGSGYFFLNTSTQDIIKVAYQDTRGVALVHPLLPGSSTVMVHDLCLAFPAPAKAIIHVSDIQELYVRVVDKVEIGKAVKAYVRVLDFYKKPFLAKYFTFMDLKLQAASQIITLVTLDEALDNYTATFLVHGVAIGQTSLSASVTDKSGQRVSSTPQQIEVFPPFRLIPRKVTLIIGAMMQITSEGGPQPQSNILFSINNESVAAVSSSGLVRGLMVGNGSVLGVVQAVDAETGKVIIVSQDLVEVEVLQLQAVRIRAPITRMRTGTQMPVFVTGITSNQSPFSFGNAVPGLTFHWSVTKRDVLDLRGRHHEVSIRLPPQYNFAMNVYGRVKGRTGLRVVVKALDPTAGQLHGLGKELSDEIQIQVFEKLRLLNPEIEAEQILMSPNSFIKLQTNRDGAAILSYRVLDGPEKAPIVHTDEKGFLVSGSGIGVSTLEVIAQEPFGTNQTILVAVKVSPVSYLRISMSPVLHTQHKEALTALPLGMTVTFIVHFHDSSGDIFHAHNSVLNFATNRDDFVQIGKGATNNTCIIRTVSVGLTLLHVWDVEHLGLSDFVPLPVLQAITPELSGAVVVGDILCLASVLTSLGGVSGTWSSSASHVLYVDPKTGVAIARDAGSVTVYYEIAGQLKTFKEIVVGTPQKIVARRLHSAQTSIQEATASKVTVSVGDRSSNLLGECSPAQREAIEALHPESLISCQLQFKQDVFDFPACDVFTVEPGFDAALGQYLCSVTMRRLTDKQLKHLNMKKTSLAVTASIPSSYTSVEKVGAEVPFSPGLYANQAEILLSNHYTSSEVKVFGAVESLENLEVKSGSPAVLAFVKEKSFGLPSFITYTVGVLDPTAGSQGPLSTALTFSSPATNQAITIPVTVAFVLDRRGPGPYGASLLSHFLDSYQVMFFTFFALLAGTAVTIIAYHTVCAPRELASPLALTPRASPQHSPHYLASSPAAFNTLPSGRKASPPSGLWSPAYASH
# UniProt Q9QZS8: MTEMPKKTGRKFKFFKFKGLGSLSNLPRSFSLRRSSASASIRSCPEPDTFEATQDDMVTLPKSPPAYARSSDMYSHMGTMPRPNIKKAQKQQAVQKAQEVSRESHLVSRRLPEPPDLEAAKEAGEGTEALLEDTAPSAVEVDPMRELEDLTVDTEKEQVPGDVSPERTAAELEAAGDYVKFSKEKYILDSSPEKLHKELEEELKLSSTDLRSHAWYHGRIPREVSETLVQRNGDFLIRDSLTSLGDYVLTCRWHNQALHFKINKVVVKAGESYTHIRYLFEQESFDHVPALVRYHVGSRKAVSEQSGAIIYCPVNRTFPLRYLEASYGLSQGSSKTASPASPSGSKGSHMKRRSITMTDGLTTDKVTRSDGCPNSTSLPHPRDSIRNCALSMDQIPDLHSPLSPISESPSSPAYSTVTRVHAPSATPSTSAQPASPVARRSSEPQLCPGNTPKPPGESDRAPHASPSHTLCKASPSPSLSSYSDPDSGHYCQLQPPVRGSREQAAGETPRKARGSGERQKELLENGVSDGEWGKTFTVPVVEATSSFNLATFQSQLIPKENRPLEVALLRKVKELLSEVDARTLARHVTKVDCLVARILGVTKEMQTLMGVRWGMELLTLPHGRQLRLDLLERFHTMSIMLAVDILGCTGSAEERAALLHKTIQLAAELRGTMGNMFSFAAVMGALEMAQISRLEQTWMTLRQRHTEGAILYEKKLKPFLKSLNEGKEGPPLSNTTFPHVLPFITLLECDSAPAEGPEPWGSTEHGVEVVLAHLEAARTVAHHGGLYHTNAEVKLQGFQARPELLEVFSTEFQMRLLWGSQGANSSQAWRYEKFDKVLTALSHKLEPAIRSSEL
# UniProt Q9R099: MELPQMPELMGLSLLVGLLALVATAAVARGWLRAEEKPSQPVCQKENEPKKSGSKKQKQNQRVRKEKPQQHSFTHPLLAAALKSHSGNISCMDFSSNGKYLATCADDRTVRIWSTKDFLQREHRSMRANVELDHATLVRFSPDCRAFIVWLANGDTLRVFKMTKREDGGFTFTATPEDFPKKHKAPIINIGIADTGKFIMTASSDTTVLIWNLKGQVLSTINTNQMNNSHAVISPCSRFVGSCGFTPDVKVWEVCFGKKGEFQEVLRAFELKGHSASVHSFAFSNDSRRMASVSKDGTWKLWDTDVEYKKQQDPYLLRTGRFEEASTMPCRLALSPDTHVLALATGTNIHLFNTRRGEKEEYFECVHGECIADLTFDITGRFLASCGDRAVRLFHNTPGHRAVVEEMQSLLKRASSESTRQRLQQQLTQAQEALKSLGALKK
# UniProt Q9QYJ3, whole entry: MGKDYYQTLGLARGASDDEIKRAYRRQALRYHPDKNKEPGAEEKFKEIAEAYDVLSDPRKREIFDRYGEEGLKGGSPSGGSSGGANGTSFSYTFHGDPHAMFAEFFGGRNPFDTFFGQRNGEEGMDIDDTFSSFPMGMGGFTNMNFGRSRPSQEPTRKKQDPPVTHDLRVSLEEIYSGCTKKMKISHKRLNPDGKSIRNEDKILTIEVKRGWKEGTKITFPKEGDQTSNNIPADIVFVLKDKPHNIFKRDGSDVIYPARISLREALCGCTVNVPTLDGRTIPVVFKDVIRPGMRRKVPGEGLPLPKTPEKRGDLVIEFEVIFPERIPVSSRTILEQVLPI
# UniProt Q9R0Q7: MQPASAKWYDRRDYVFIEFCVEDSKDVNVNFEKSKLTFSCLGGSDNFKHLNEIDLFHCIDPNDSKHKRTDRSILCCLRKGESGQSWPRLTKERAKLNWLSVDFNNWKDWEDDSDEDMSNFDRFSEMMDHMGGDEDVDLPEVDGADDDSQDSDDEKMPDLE
# UniProt Q9QXL8, whole entry: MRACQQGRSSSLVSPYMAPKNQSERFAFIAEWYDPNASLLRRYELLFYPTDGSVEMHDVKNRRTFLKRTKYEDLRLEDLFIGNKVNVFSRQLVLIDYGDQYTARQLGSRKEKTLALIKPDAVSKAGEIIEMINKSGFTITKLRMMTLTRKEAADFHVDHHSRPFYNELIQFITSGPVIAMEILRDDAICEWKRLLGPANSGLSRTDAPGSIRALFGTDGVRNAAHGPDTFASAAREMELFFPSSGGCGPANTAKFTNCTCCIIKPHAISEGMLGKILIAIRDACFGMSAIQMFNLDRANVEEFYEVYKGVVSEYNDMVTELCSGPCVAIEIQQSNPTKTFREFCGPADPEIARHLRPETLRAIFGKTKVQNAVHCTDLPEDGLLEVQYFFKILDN
# Some of the results follow. Most entries show no effect beyond the scatter of the controls.
# Compound: CN[C@@H]1C[C@H]2O[C@@](C)([C@@H]1OC)n1c3ccccc3c3c4c(c5c6ccccc6n2c5c31)C(=O)NC4 [staurosporine]
# Experiment: log2 fold change of tryptic peptide abundance, ligand vs vehicle (limited proteolysis) (log2 ratio); higher = more trypsin-susceptible (destabilized)
# Settings: ligand concentration: 20 uM; sample: mouse liver crude lysate; replicate design: treated separately
row,Target,log2 fold change
1,"UniProt Q9R0H0 (peptide sequence: DVTLGSVLGR, peptide start residue: 614)",-0.319
2,"UniProt Q9R1Q7 (peptide sequence: HTAAPTDPTDGP, peptide start residue: 141)",-0.0126
3,"UniProt Q9R1S7 (peptide sequence: TTIYLSYLR, peptide start residue: 927)",0.543
4,"UniProt Q9WTN0 (peptide sequence: YLLQLPGK, peptide start residue: 18)",0.13
5,"UniProt Q9WV86 (peptide sequence: IEGLTPEEIR, peptide start residue: 437)",-0.415
6,"UniProt Q9QXN0 (peptide sequence: EGHVPGAAHSEGSQIMTATPPQTSAK, peptide start residue: 1571)",-1.05
7,"UniProt Q9WTP7 (peptide sequence: AVIMGAPGSGKGTVSSR, peptide start residue: 10)",0.108
8,"UniProt Q9R1V6 (peptide sequence: AGVASLK, peptide start residue: 26)",0.305
9,"UniProt Q9R078 (peptide sequence: KTDFEVFDALMVDSQK, peptide start residue: 157)",0.314
10,"UniProt Q9WTP2 (peptide sequence: VVHCKPLDLK, peptide start residue: 136)",-0.0511
11,"UniProt Q9WUD8 (peptide sequence: EGIIHTLIVDNR, peptide start residue: 161)",0.11
12,"UniProt Q9WV02 (peptide sequence: IVEVLLMKDR, peptide start residue: 34)",0.351
13,"UniProt Q9QYX7 (peptide sequence: RMCRTNTMAR, peptide start residue: 3678)",-0.0722
14,"UniProt Q9QZK2 (peptide sequence: HHYTQTAILYEK, peptide start residue: 666)",-0.282
15,"UniProt Q9QXV3 (peptide sequence: ENASNNHDHDDITSGTPK, peptide start residue: 160)",0.528
16,"UniProt Q9WUX5 (peptide sequence: SCGPSEDGVPR, peptide start residue: 654)",0.391
17,"UniProt Q9QYR9 (peptide sequence: LAQAVHER, peptide start residue: 161)",-0.421
18,"UniProt Q9WU03 (peptide sequence: TVWSTADDKEQLVK, peptide start residue: 234)",-0.0433
19,"UniProt Q9QY81 (peptide sequence: KASPPSGLWSPAYASH, peptide start residue: 1871)",-0.199
20,"UniProt Q9QYJ0 (peptide sequence: EYHPDKNPNAGDKFK, peptide start residue: 34)",0.176

# Two entries from above, tab-delimited.
row	Target	log2 fold change
2	UniProt Q9R1Q7 (peptide sequence: HTAAPTDPTDGP, peptide start residue: 141)	-0.0126
8	UniProt Q9R1V6 (peptide sequence: AGVASLK, peptide start residue: 26)	0.305

# Part of the list above, tab-delimited:
row	Target	log2 fold change
12	UniProt Q9WV02 (peptide sequence: IVEVLLMKDR, peptide start residue: 34)	0.351
13	UniProt Q9QYX7 (peptide sequence: RMCRTNTMAR, peptide start residue: 3678)	-0.0722

# Continued.

row,Target,log2 fold change
1,"UniProt Q9QZS8 (peptide sequence: VHAPSATPSTSAQPASPVAR, peptide start residue: 420)",-0.189
2,"UniProt Q9QXG4 (peptide sequence: TVYGNHTRFETTYFK, peptide start residue: 528)",0.16
3,"UniProt Q9R1C0 (peptide sequence: VDRVPLAAK, peptide start residue: 58)",0.559
4,"UniProt Q9WTX6 (peptide sequence: CGEAALNDPK, peptide start residue: 355)",-0.871
5,"UniProt Q9QY06 (peptide sequence: VGQITVSEK, peptide start residue: 1447)",-0.28
6,"UniProt Q9QZQ1 (peptide sequence: LTELENELNTK, peptide start residue: 1810)",-0.406
7,"UniProt Q9WTN3 (peptide sequence: GGTTAELEPRPTWR, peptide start residue: 1058)",-0.37
8,"UniProt Q9R0P4 (peptide sequence: ESHPHGVKR, peptide start residue: 6)",-0.178
9,"UniProt Q9QXN3 (peptide sequence: KTSLSAGPR, peptide start residue: 402)",-0.618
10,"UniProt Q9QY66 (peptide sequence: LLEELDHAANR, peptide start residue: 139)",0.317
11,"UniProt Q9R008 (peptide sequence: WAFEGER, peptide start residue: 188)",-0.142
12,"UniProt Q9R1L5 (peptide sequence: TQAPQPLGTDSK, peptide start residue: 1448)",0.0768
13,"UniProt Q9R099 (peptide sequence: EKPQQHSFTHPLLAAALK, peptide start residue: 66)",-0.371
14,"UniProt Q9WUK4 (peptide sequence: TTSILCLAR, peptide start residue: 78)",0.137
15,"UniProt Q9R0B7 (peptide sequence: GSEEPEGREPDGVR, peptide start residue: 22)",0.472
16,"UniProt Q9WU40 (peptide sequence: QMYDMVVK, peptide start residue: 675)",0.694
17,"UniProt Q9QYJ3 (peptide sequence: SIRNEDKILTIEVK, peptide start residue: 196)",0.392
18,"UniProt Q9R0Q7 (peptide sequence: KGESGQSWPRLTK, peptide start residue: 79)",-0.368
19,"UniProt Q9QXL8 (peptide sequence: SSSLVSPYMAPK, peptide start residue: 9)",0.152
20,"UniProt Q9QZB9 (peptide sequence: SEYIETASGNK, peptide start residue: 11)",-0.459
